These are yes or no findings as the source states them, for the method shown. Some entries that bind do so weakly or less than the wild type.
Molecular target: T1, LNK1 C-terminal fragment (yeast 2-/3-hybrid construct) (Arabidopsis thaliana) (UniProt A8MQN2)
T1 sequence: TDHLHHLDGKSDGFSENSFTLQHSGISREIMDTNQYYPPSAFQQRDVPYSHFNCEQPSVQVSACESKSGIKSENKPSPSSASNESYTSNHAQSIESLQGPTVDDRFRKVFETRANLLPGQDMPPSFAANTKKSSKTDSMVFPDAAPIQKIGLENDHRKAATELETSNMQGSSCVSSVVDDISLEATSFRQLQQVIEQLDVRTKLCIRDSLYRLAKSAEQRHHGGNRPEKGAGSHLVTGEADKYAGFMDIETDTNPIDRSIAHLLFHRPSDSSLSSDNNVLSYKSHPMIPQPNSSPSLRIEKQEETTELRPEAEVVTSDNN
Assay: two-hybrid; binary GAL4 Matchmaker Gold yeast 2-hybrid; bait in pGBKT7 (Y2H Gold), prey in pGADT7 (Y187), mated; growth on SD/-Leu-Trp-His

B1: RVE8 (yeast 2-/3-hybrid construct) (protein, UniProt Q8RWU3 1-298)
chain: MSSSPSRNPTNAEAPPPPPTSTDAVAEGSSKKVRKPYTITKSRESWTEEEHDKFLEALQLFDRDWKKIEDFVGSKTVIQIRSHAQKYFLKVQKNGTLAHVPPPRPKRKAAHPYPQKASKNAQMPLQVSTSFTTTRNGDMPGYASWDDASMLLNRVISPQHELATLRGAEADIGSKGLLNVSSPSTSGMGSSSRTVSGSEIVRKAKQPPVLHGVPDFAEVYNFIGSVFDPETRGHVEKLKEMDPINFETVLLLMRNLTVNLSNPDLESTRKVLLSYDNVTTELPSVVSLVKNSTSDKSA
Question: For B1, which binding is on record?
Answer: binds

— PMC10315267
